Source: patent US11519017B2, “Kit for diagnosing infection with Methicillin-resistant Staphylococcus aureus (MRSA) by detecting magnesium ions” (Bioacts Corporation, priority 2017, dated 2022)

How the values were obtained:
mecA gene = assay: Detection of MRSA using loop-mediated isothermal amplification (LAMP), color change; parameters: species or system Methicillin-resistant Staphylococcus aureus; conditions: 63° C. 30 minutes then 80° C. 5 minutes; FIG. 2
MRSA DNA = assay: Detection sensitivity test of MRSA using LAMP; parameters: species or system Methicillin-resistant Staphylococcus aureus; conditions: for detectable amount of MRSA DNA (up to): visual color, FIG. 4; for ease of visual detection of the color change: visual observation

| SMILES | change in color development after LAMP (mecA gene) | detectable amount of MRSA DNA (up to) (MRSA DNA) [fg] | ease of visual detection of the color change (MRSA DNA) |
| --- | --- | --- | --- |
| O=[N+]([O-])c1ccc(O)c(N=Nc2cc(S(=O)(=O)O)c3ccccc3c2O)c1 [Chemical Formula 2] | changes in color development were observed | – | – |
| Nc1ccc2c(O)c(N=Nc3ccc([N+](=O)[O-])cc3O)c(S(=O)(=O)O)cc2c1 [Chemical Formula 3] | changes were not observed | – | – |
| O=[N+]([O-])c1cc(N=Nc2c(S(=O)(=O)O)cc3cc(Nc4ccccc4)ccc3c2O)c(O)c([N+](=O)[O-])c1 [Chemical Formula 4] | changes were not observed | – | – |
| CC1=NN(c2ccccc2)C(O)C1N=Nc1cc([N+](=O)[O-])cc(S(=O)(=O)O)c1O (stereo not shown) [Chemical Formula 5] | changes in color development were observed | 100 | errors in detection during visual observation were caused due to color change |
| O=[N+]([O-])c1cc(N=Nc2c(O)cccc2O)c(O)c(S(=O)(=O)O)c1 [Chemical Formula 6] | changes were not observed | – | – |
| O=[N+]([O-])c1cc(N=Nc2c(S(=O)(=O)O)cc3cc(Nc4ccccc4)ccc3c2O)c(O)c(S(=O)(=O)O)c1 [Chemical Formula 7] | changes in color development were observed | 1e+09 | easy to be visually detected due to a clear color change |
| O=[N+]([O-])c1cc(N=Nc2c(O)ccc3ccccc23)c(O)c([N+](=O)[O-])c1 [Chemical Formula 8] | changes were not observed | – | – |
| O=[N+]([O-])c1cc(S(=O)(=O)O)cc(N=Nc2cc(S(=O)(=O)[O-])c3ccccc3c2O)c1O.[Na+] [Chemical Formula 9] | changes in color development were observed | – | – |
| O=C(Nc1ccc(S(=O)(=O)O)c2cc(S(=O)(=O)O)c(N=Nc3cc([N+](=O)[O-])cc(S(=O)(=O)O)c3O)c(O)c12)c1ccccc1 [DKLS] | changes in color development were observed | – | – |

Some entries repeat one wording, which the source may state once for all of them.
